The assay relates to Candida albicans. Briefly: Antifungal activity against Candida albicans by agar dilution method. It is filed as functional.

In brackets after ≈: the same amount, converted by molar mass.

Compound `C[C@@H]1[C@H](O)[C@@H](C)/C=C/C=C/C=C/C=C/C=C/C=C/C=C/[C@H](O[C@@H]2O[C@H](C)[C@@H](O)[C@H](N)[C@@H]2O)C[C@@H]2O[C@](O)(C[C@@H](O)C[C@@H](O)[C@H](O)CC[C@@H](O)C[C@@H](O)CC(=O)O[C@H]1C)C[C@H](O)[C@H]2C(=O)O` [AMPHOTERICIN B] gave an MIC of 3 µg/mL (≈ 3.25 µM).
